Here are results for two substances from paper PMC3308990.

Chains of the proteins cited; added tags and fusions are not shown. Lines headed by an entry give the natural chain unless they say otherwise; changes in a name come on top.
UniProt Q9D198: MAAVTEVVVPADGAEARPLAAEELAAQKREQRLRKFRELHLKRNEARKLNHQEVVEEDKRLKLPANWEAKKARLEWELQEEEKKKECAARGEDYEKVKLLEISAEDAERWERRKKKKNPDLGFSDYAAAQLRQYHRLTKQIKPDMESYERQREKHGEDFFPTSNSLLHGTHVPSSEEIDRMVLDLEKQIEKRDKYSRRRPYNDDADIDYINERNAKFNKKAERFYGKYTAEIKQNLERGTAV
UniProt O88569: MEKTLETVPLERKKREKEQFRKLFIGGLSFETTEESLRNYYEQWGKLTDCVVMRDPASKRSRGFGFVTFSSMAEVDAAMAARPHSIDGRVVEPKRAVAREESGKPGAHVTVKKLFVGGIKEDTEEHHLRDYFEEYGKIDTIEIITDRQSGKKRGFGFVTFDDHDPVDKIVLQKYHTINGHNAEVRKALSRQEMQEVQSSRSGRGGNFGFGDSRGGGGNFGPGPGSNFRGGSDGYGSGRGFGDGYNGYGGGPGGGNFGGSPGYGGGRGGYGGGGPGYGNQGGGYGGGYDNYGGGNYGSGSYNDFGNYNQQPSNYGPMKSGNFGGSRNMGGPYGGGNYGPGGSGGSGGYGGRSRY
UniProt Q8VEK3: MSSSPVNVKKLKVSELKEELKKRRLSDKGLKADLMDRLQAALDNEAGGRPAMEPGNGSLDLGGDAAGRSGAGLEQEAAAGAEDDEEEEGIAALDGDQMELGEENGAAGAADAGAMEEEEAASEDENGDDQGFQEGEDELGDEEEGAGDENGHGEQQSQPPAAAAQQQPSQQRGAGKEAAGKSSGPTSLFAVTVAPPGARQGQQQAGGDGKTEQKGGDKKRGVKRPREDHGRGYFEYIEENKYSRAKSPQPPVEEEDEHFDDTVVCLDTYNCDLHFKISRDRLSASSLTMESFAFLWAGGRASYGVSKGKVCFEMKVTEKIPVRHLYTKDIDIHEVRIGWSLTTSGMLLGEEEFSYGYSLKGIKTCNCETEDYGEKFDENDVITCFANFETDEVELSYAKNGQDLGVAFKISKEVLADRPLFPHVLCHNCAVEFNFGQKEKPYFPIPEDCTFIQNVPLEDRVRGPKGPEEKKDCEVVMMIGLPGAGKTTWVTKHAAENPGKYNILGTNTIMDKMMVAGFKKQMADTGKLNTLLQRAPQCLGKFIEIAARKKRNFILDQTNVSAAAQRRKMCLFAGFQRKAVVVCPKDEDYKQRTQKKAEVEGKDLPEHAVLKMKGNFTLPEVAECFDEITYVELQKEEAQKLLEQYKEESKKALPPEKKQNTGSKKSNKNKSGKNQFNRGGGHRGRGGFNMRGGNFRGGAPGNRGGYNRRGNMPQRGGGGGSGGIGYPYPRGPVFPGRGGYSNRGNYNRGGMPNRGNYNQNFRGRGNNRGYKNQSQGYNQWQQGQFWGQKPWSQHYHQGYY

For the assay, the target named is HA-mp29 (mouse) (UniProt Q9D198). The assay can be described thus: affinity purification with mass spectrometry; HA-mp29 immunoprecipitated complexes analysed by mass spectrometry; cells and conditions not told for this experiment.

These are yes or no findings as the source states them, for the method shown. Binding seen in cells or lysates may run through a third protein. A yes stands for co-enrichment or nearness to the bait. Other partners may have been found.

Turning to hnRNPA2 (from UniProt O88569 1-353), the binding entry is recorded as “binds”. The result for hnRNPU (from UniProt Q8VEK3 1-800) reads “binds”.
